Reference: patent US12195706B2, “Formation of arrays of planar intestinal crypts possessing a stem/proliferative cell compartment and differentiated cell zone” (THE UNIVERSITY OF NORTH CAROLINA AT CHAPEL HILL, priority 2018, dated 2025)
At least one compound was matched to its structure with a doubt left.

Tests used:
[1] = tested on: mouse intestinal epithelial cells; assay: Effect of short chain fatty acids on proliferation and differentiation on planar crypt arrays; format: cell-based; conditions: 24 mM acetate, 6 mM propionate or 1 mM butyrate in DM luminal medium, day 3-4 (DM/EM)
[2] = tested on: intestinal tumor cell lines; conditions: cited from earlier work
[3] = tested on: primary murine intestinal organoids; conditions: cited from earlier work
[4] = tested on: human colon cancer cell lines; conditions: cited from earlier work

For CCCC(=O)O [butyrate], the “ALP activity relative to the control” value ([1]; ALP+ area normalized to Hoechst 33342 area) is listed as “significantly increased”, the “normalized area of EdU+ cells compared to control without short chain fatty acid” value ([1]; EdU+ area normalized to Hoechst 33342 area) is listed as “significantly decreased” and the “proliferation in intestinal tumor cell lines” value [2] is listed as “suppress proliferation”. For the same compound, the “proliferation in primary murine intestinal organoids” value [3] was “decreases proliferation” and the “apoptosis in human colon cancer cell lines” value [4] was “induces apoptosis”.
